Laboratory results taken from patent EP2131651B1 (Sarentis Therapeutics, Inc., priority 2007, dated 2013).
Not every detail of the peptide structures is certain; ends, links or a residue may be inferred. Some compounds share one wording; it may come from a single statement. Square brackets hold non-standard residues; d marks the D form. Peptide text beside a SMILES is read from it. Ala(indol-4-yl) = N[C@@H](Cc1cccc2[nH]ccc12)C(=O)O; NMeR = CN[C@@H](CCCNC(=N)N)C(=O)O; Tle = CC(C)(C)[C@H](N)C(=O)O

Test system: rabbit intact cornea
Test: Topical corneal analgesia in rabbit ocular pain model, blink response with Cochet-Bonnet aesthesiometer
Type: in vivo, New Zealand white rabbits
Conditions: 50-70 µl, NT69 1.2 mg/ml, NT71 1 mg/ml, NT72 1 mg/ml

SMILES: CN[C@@H](CCCNC(=N)N)C(=O)N[C@@H](CCCCN)C(=O)N1CCC[C@H]1C(=O)N[C@@H](Cc1cccc2[nH]ccc12)C(=O)N[C@H](C(=O)N[C@@H](CC(C)C)C(=O)O)C(C)(C)C [NT69] (H-[NMeR]KP[Ala(indol-4-yl)][Tle]L-OH)
- duration of analgesic effect: at least 90 minutes
- onset: time after administration with no blink response: 15 min
- corneal sensation (blink response to the strongest stimulus, 10 mm hairs) (FIGURE 4): abolished corneal sensation
